# Assay results

Data taken from PubChem BioAssay AID504749, deposited by NCATS (2011).

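Malaria parasite (P. falciparum) lines kept in red blood cells; parasite DNA is measured by SYBR Green fluorescence after lysis, 72 h after compound addition. Each compound was titrated across a series from about 0.000037 to 29 µM. The number is the fitted AC50, the concentration giving a half-maximal change in signal; a lower value means higher potency, whether the curve shows a decrease or an increase. Calls follow the curve class and fit quality: every row here is inconclusive, covering signal-raising curves and weak, poorly fitted, partial or highest-dose-only inhibition curves.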

Values are in µM. Every entry below has the call inconclusive. Only part of the assay is shown, chiefly results filed as inconclusive. A potency from a partial, single-point or poor curve is only a rough figure.

compound,tested on / at,fitted potency (µM),curve as filed
CN1CCCCC1CCN1c2ccccc2Sc2ccc(S(C)=O)cc21 (stereo not drawn),PC26,16.94,"inhibitor, single point"
CN1CCCCC1CCN1c2ccccc2Sc2ccc(S(C)=O)cc21 (stereo not drawn),CP268,6.012,"inhibitor, partial curve, poor fit"
CN1CCCCC1CCN1c2ccccc2Sc2ccc(S(C)=O)cc21 (stereo not drawn),ATS95,7.08,"inhibitor, partial curve"
CN1CCCCC1CCN1c2ccccc2Sc2ccc(S(C)=O)cc21 (stereo not drawn),ATS189,5.623,"inhibitor, partial curve"
CN1CCCCC1CCN1c2ccccc2Sc2ccc(S(C)=O)cc21 (stereo not drawn),CP269,7.569,"inhibitor, partial curve"
CN1CCCCC1CCN1c2ccccc2Sc2ccc(S(C)=O)cc21 (stereo not drawn),CP250,5.012,"inhibitor, partial curve"
CN1CCCCC1CCN1c2ccccc2Sc2ccc(S(C)=O)cc21 (stereo not drawn),DIV30,6.746,"inhibitor, partial curve, poor fit"
CN1CCCCC1CCN1c2ccccc2Sc2ccc(S(C)=O)cc21 (stereo not drawn),CP211,4.256,"inhibitor, partial curve, poor fit"
CN1CCCCC1CCN1c2ccccc2Sc2ccc(S(C)=O)cc21 (stereo not drawn),P94_40,11.22,"inhibitor, single point"
CN1CCCCC1CCN1c2ccccc2Sc2ccc(S(C)=O)cc21 (stereo not drawn),TAB165,10,"inhibitor, partial curve, poor fit"
CN1CCCCC1CCN1c2ccccc2Sc2ccc(S(C)=O)cc21 (stereo not drawn),CP305,6.012,"inhibitor, partial curve, poor fit"
CN1CCCCC1CCN1c2ccccc2Sc2ccc(S(C)=O)cc21 (stereo not drawn),AA1029,5.012,"inhibitor, partial curve"
CN1CCCCC1CCN1c2ccccc2Sc2ccc(S(C)=O)cc21 (stereo not drawn),PC15,8.912,"inhibitor, partial curve"
CN1CCCCC1CCN1c2ccccc2Sc2ccc(S(C)=O)cc21 (stereo not drawn),TAB109,6.31,"inhibitor, partial curve"
CN1CCCCC1CCN1c2ccccc2Sc2ccc(S(C)=O)cc21 (stereo not drawn),SC27B,5.623,"inhibitor, partial curve"
NC(CCC(=O)N[C@@H](CS)C(=O)NCC(=O)O)C(=O)O (stereo partly drawn),AS120,10,"inhibitor, single point"
NC(CCC(=O)N[C@@H](CS)C(=O)NCC(=O)O)C(=O)O (stereo partly drawn),CP329,13.46,"inhibitor, single point"
NC(CCC(=O)N[C@@H](CS)C(=O)NCC(=O)O)C(=O)O (stereo partly drawn),CP203,19.01,"inhibitor, single point"
NC(CCC(=O)N[C@@H](CS)C(=O)NCC(=O)O)C(=O)O (stereo partly drawn),AA1029,14.13,"inhibitor, single point"
NC(CCC(=O)N[C@@H](CS)C(=O)NCC(=O)O)C(=O)O (stereo partly drawn),JCK,17.78,"inhibitor, single point"
NC(CCC(=O)N[C@@H](CS)C(=O)NCC(=O)O)C(=O)O (stereo partly drawn),CP291,19.01,"inhibitor, single point"
NC(CCC(=O)N[C@@H](CS)C(=O)NCC(=O)O)C(=O)O (stereo partly drawn),CP215,19.01,"inhibitor, single point"
NC(CCC(=O)N[C@@H](CS)C(=O)NCC(=O)O)C(=O)O (stereo partly drawn),ATS95,17.78,"inhibitor, single point"
NC(CCC(=O)N[C@@H](CS)C(=O)NCC(=O)O)C(=O)O (stereo partly drawn),CP185,17.78,"inhibitor, single point"
NC(CCC(=O)N[C@@H](CS)C(=O)NCC(=O)O)C(=O)O (stereo partly drawn),CP252,12.59,"inhibitor, single point"
NC(CCC(=O)N[C@@H](CS)C(=O)NCC(=O)O)C(=O)O (stereo partly drawn),CP305,16.94,"inhibitor, single point"
NC(CCC(=O)N[C@@H](CS)C(=O)NCC(=O)O)C(=O)O (stereo partly drawn),PC49,17.78,"inhibitor, single point"
NC(CCC(=O)N[C@@H](CS)C(=O)NCC(=O)O)C(=O)O (stereo partly drawn),CP194,15.1,"inhibitor, single point"
NC(CCC(=O)N[C@@H](CS)C(=O)NCC(=O)O)C(=O)O (stereo partly drawn),CP192,16.94,"inhibitor, single point"
NC(CCC(=O)N[C@@H](CS)C(=O)NCC(=O)O)C(=O)O (stereo partly drawn),FAB9,11.22,"inhibitor, single point"

3 of the entries, repeated:

{"compound": "CN1CCCCC1CCN1c2ccccc2Sc2ccc(S(C)=O)cc21", "stereo": "stereo not drawn", "tested on / at": "CP268", "fitted potency (µM)": "6.012", "curve as filed": "inhibitor, partial curve, poor fit"}
{"compound": "CN1CCCCC1CCN1c2ccccc2Sc2ccc(S(C)=O)cc21", "stereo": "stereo not drawn", "tested on / at": "TAB165", "fitted potency (µM)": "10", "curve as filed": "inhibitor, partial curve, poor fit"}
{"compound": "CN1CCCCC1CCN1c2ccccc2Sc2ccc(S(C)=O)cc21", "stereo": "stereo not drawn", "tested on / at": "CP211", "fitted potency (µM)": "4.256", "curve as filed": "inhibitor, partial curve, poor fit"}